The supplement of paper PMC12067093, “Discovery and optimisation of a covalent ligand for TRIM25 and its application to targeted protein ubiquitination” (Chemical Science, 2025)
This is one part of the list.

Compound: CC1Cc2ccccc2N1C(=O)C1CCCN(C1)C(=O)CCl (mixture of isomers) [TRIM25 ligand 11 (diastereomer mixture)]
Experiment: probe-labelled cysteine peptide fold change vs DMSO (competition) (log2 fold change); higher = less target engagement (more negative = stronger competition)
Settings: THP-1, incubation time: 4 h
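Further: competitive chemoproteomic profiling in live THP-1 cells with an iodoacetamide desthiobiotin (IA-DTB) probe, comparing probe-labelled peptide intensities in compound-treated cells against DMSO-treated controls.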

Target | probe-labelled cysteine peptide fold change (10 µM) | probe-labelled cysteine peptide fold change (50 µM)
PAPSS1_O43252_295_EREYLQCLHFDCLLDGGVINLSVPIVLTATHEDK (UniProt O43252) | 0.236 | 0.317
OSBPL1A_Q9BXW6_710+711_GTITLELLEHNEAYTWTNPTCCVHNIIVGK (UniProt Q9BXW6) | 0.0773 | 0.027
PA2G4_Q9UQ80_85+87_GIAFPTSISVNNCVCHFSPLK (UniProt Q9UQ80) | 0.241 | -0.232
OSBPL1A_Q9BXW6_520_DCGGGDALSNGIK (UniProt Q9BXW6) | 0.00496 | 0.0314
P4HB_P07237_397+400_KNVFVEFYAPWCGHCK (UniProt P07237) | -0.421 | 
OTUD7B_Q6GQQ9_345_DSGGEAFAPIPFGGIYLPLEVPASQCHR (UniProt Q6GQQ9) | 0.184 | 0.0768
ORC1_Q13415_506_LHVSAVPESLPCR (UniProt Q13415) | 0.149 | 0.139
PARP1_P09874_24_CSESIPK (UniProt P09874) | -0.0701 | 0.0334
PARP10_Q53GL7_898_RPVEQVLYHGTTAPAVPDICAHGFNR (UniProt Q53GL7) | 0.00207 | -0.0554
OSTC_Q9NRP0_14_VPFLVLECPNLK (UniProt Q9NRP0) | -0.0633 | 0.00142
OPA1_O60313_874_HFVDSELECNDVVLFWR (UniProt O60313) | 0.156 | -0.0304
PARP14_Q460N5_208_FVDDCTK (UniProt Q460N5) | -0.0975 | -0.12
ORC4_O43929_421_YPNCPTDVR (UniProt O43929) | -0.0685 | -0.149
OGT_O15294_620_VMAEANHFIDLSQIPCNGK (UniProt O15294) | -0.123 | -0.392
OTUB1_Q96FW1_23_QEPLGSDSEGVNCLAYDEAIMAQQDR (UniProt Q96FW1) | -0.0765 | -0.462
OSGEP_Q9NPF4_110_PLVGVNHCIGHIEMGR (UniProt Q9NPF4) | 0.103 | 0.0404
PALD1_Q9ULE6_118_MDVLGTVGSCGAPNFR (UniProt Q9ULE6) | 0.187 | -0.0802
P2RX4_Q99571_270_AASLCLPR (UniProt Q99571) | 0.0409 | -0.0989
OGT_O15294_68_QEPDNTGVLLLLSSIHFQCR (UniProt O15294) | 0.262 | 0.329

Target | probe-labelled cysteine peptide fold change (10 µM) | probe-labelled cysteine peptide fold change (50 µM)
OTUD7B_Q6GQQ9_280_MHLGTNGANCGGVESSEEPVYESLEEFHVFVLAHVLR (UniProt Q6GQQ9) | 0.293 | 0.432
PAFAH1B1_P43034_168_LLASCSADMTIK (UniProt P43034) | 0.0746 | -0.000688
PALD1_Q9ULE6_312_DAHGPPPALVFSCQMGVGR (UniProt Q9ULE6) | 0.215 | 0.15
PAFAH1B1_P43034_226_MWEVQTGYCVK (UniProt P43034) | 0.223 | 0.287
PAN2_Q504Q3_550_CLIQNHLCQK (UniProt Q504Q3) | 0.198 | 0.256
PA2G4_Q9UQ80_296_MGVVECAKHELLQPFNVLYEK (UniProt Q9UQ80) | -0.781 | -0.434
ORC1_Q13415_529_LLDHTGGCMYISGVPGTGK (UniProt Q13415) | 0.0299 | 0.0345
PARP14_Q460N5_1265_AILECAGQNVER (UniProt Q460N5) | -0.12 | -0.23
OSBPL5_Q9H0X9_14_FSLCPPSSTPQK (UniProt Q9H0X9) | -0.0248 | -0.0205
OPA1_O60313_786_TQEQCVHNETK (UniProt O60313) | -0.0558 | -0.14
P4HTM_Q9NXG6_156_PLLFEIPGFLTDEECR (UniProt Q9NXG6) | 0.353 | 0.15
PAFAH1B1_P43034_330_MWDVSTGMCLMTLVGHDNWVR (UniProt P43034) | 0.174 | 0.159
PACS1_Q6VY07_732_VMQYVNGAATTHQLPVAEAMLTCR (UniProt Q6VY07) | 0.0312 | -0.363
ORC6_Q9Y5N6_88_SFECLLGLNSNIGIR (UniProt Q9Y5N6) | 0.0454 | 0.0144
P4HB_P07237_312_KEECPAVR (UniProt P07237) | 0.02 | -0.00472
OXR1_Q8N573_410_SDTEHSTNEVGTLCHK (UniProt Q8N573) | 0.217 | 0.00313
PAPSS1_O43252_290+295_EREYLQCLHFDCLLDGGVINLSVPIVLTATHEDK (UniProt O43252) | -0.13 | 0.0777
OLA1_Q9NTK5_187_LKPEYDIMCK (UniProt Q9NTK5) | -0.0298 | -0.159

Reformatted in CSV form: part of the list above
Target,probe-labelled cysteine peptide fold change (10 µM),probe-labelled cysteine peptide fold change (50 µM)
OTUD7B_Q6GQQ9_280_MHLGTNGANCGGVESSEEPVYESLEEFHVFVLAHVLR (UniProt Q6GQQ9),0.293,0.432
PAFAH1B1_P43034_168_LLASCSADMTIK (UniProt P43034),0.0746,-0.000688
PALD1_Q9ULE6_312_DAHGPPPALVFSCQMGVGR (UniProt Q9ULE6),0.215,0.15
PAN2_Q504Q3_550_CLIQNHLCQK (UniProt Q504Q3),0.198,0.256
ORC1_Q13415_529_LLDHTGGCMYISGVPGTGK (UniProt Q13415),0.0299,0.0345
PARP14_Q460N5_1265_AILECAGQNVER (UniProt Q460N5),-0.12,-0.23
OSBPL5_Q9H0X9_14_FSLCPPSSTPQK (UniProt Q9H0X9),-0.0248,-0.0205
P4HTM_Q9NXG6_156_PLLFEIPGFLTDEECR (UniProt Q9NXG6),0.353,0.15
PAPSS1_O43252_290+295_EREYLQCLHFDCLLDGGVINLSVPIVLTATHEDK (UniProt O43252),-0.13,0.0777
OLA1_Q9NTK5_187_LKPEYDIMCK (UniProt Q9NTK5),-0.0298,-0.159
